Experiments:
[1] = test system: epididymal fat pad; assay: In vivo lipolysis assay: epididymal fat pad mass after injection into the fat pad; parameters: species or system Sprague Dawley rats
[2] = test system: cultured human adipocytes; assay: In vitro lipolysis assay (glycerol release) in cultured adipocytes; type: cell-based; conditions: three hour incubation
Protocol: In the in vitro lipolysis assay, glycerol was detected in cell culture media via a spectrophotometric measurement after chemical oxidation with hydrogen peroxide. Glycerol was measured over a three hour time period. Levels of lipolysis in cultured human adipocytes were tested after exposure to a beta adrenergic agonist alone, a glucocorticosteroid alone, or the combination of the two for one or more preincubation periods as described in more detail below.
Human subcutaneous adipocytes were used in the lipolysis assay. Adipose tissue was harvested from liposuction or lipectomy and pre-adipocytes were isolated as follows. Briefly, fat tissue was minced and incubated at 37° C. in Krebs-Ringer bicarbonate buffer containing 1% bovine serum albumin and 0.1% collagenase in an oxygen-rich shaking chamber (5% CO2; 75 strokes/min) for 1 hour. The suspension was filtered through a 400 μm nylon mesh and centrifuged for 1 min at 100 g. The pre-adipocytes in the supernatant were washed twice with and then plated in 96 well plates at a density of cells/well. The pre-adipocytes were cultured in maintenance medium for seven days as they differentiated into adipocytes.
At −21 hours before the lipolysis assay, medium was removed from each well and replaced with 75 μl of Maintenance Medium containing appropriate drug or DMSO (vehicle) concentrations (see Experimental Design section below). Each test drug or control treatment was applied to 8 wells/group (12 treatment groups per 96-well plate). […]
The glycerol content of the Assay Buffer from each well following the incubation was used as an index for lipolysis, where an increase in glycerol indicated lipolysis. Glycerol levels were assayed colorimetrically via a commercial glycerol assay kit (Randox Laboratory, United Kingdom) and quantified by comparison to a glycerol serial dilution standard curve (3 μM-200 μM). […]

COc1ccc(C[C@@H](C)NC[C@H](O)c2ccc(O)c(NC=O)c2)cc1 (racemic) [Formoterol, ±N-[2-hydroxy-5-[1-hydroxy-2-[1-(4-methoxyphenyl)propan-2-ylamino]ethyl]phenyl]methanamide]
average epididymal fat loss relative to vehicle-injected control group ([1]; formoterol 0.1 μg alone or with methylprednisolone 100 μg, right epididymal fat pad injected once per day for three days): essentially no fat loss
Fat Pad Weight Δ (drug-vehicle), individual animals ([1]; three daily injections, Formoterol 1.39 μg, or Formoterol 1.39 μg + Budesonide 4 μg, contralateral pad vehicle (2% PEG), harvested 24 h after the final injection): -0.036 g
induction of lipolysis in cultured adipocytes (figure legend) [2]: dose-dependent induction of lipolysis
lipolysis compared with Isoproterenol (positive control) ([2]; Isoproterenol 10^−6 M, formoterol statement holds for concentrations of 10^−6 M and above): greater than that observed for isoproterenol
increase in lipolysis ([2]; relative to negative control (0.1% DMSO), Isoproterenol 10^−6 M positive control): greater than six fold

Source: patent US20100137267A1, “FORMULATIONS FOR TREATMENT OF ADIPOSE TISSUE, CUTANEOUS TISSUE AND DISORDERS, AND MUSCULAR TISSUE” (priority 2006, published 2010)
